Laboratory results published in PMC3900635, “Transport Rankings of Non-Steroidal Antiinflammatory Drugs across Blood-Brain Barrier In Vitro Models” (PLoS ONE, 2014).

Columns and labels:
ECV304 cell layers = details: human
Procedure: (§1) All solutions were prepared under sterile conditions.
(§2) For quantification of NSAIDs a reverse-phase high-performance liquid chromatography (RP-HPLC) system from Shimadzu was used (DGV-20A5/prominence Degasser, SIL – 20AC/prominence Auto Sampler, CTO – 20AC/prominence Column Oven, SPD – 20A/prominence UV detector, CMB – 20A/prominence Communications Bus Module). […] Before analysis proteins of samples were precipitated with ice-cold methanol or acetonitril depending on mobile phase composition and supernatants were analyzed. Data aquisition and analysis were performed by LC-Solution software (Shimadzu Handelsgesellschaft, Austria). Substances were analysed in triplicates with a injection volume of 20–50 µL.Varying mixtures of methanol, acetonitrile, and 10 mM potassium buffer (pH = 2.5 for all analysis except pH = 3.5 for single studies with celecoxib) were used as mobile phase.
(§3) Permeability coefficients were calculated following the clearance principle as described recently. Results of blank value experiments were included into permeability coefficient calculation by using reciprocal correlation shown in equation (1):
(§4) 1/PEcell = 1/PEall – 1/PEblank (1)
(§5) PEblank refers to the permeability coefficient without cell layer, PEall represents the permeability coefficient through membrane insert and the cell layer and PEcell is the permeability coefficient only through the cell layer.

in vitro = details: rat
Procedure: as §1, §2, §3, §4, §5

[1] = system: primary rat brain microvascular endothelial cells (RBMEC); assay: in vitro
Procedure: as §1, §2, §3, §4, §5

With CN1C(=O)CN=C(c2ccccc2)c2cc(Cl)ccc21 [Diazepam, diazepam] the PEall (ECV304 cell layers) was 13.26±0.05 µm/min, the Papp (in vitro) was 699 nm/s and the PSblank [1] was 1.93 ± 0.13 µL/min. For the same compound, the PEall ([1]; rat) was 14.35±0.20 µm/min and the PScell ([1]; rat) was 3.77 ± 0.16 µL/min.
